PubChem BioAssay AID1671195 – Yale University | 2021
Purpose: 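Genes whose knockdown alters LDL uptake in liver cancer cells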 (primary screen). Cells: human Huh7 hepatoma cells. Reagents: siRNA pool against human genes, 18 nM. Timing: about 2 to 2.5 days of knockdown, then 8 h LDL uptake. Conditions: DiI-labelled LDL at 30 µg/ml for 8 h, in lipoprotein-deficient serum medium. Measurement: 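Per-cell DiI-LDL intensity by automated imaging; well means scaled to the plate median and given as a robust z-score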. Reading the numbers: robust z-score: higher = more LDL uptake after knockdown. Rule for the call: 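Active when two or more replicates show a robust z-score above 2 or below -2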.
Here is an unselected part of about 22,000 reagents tested. About 1,510 of them (6.9%) count as active. 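Active includes knockdowns raising or lowering LDL uptake; positive z-scores mean more uptake, negative mean less.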 Reagents against one gene are numbered here.

| gene knocked down | reagent no. | robust z-score, replicate 1 | robust z-score, replicate 2 | robust z-score, replicate 3 | call |
| --- | --- | --- | --- | --- | --- |
| LOC440507 (retired record) | 1 | 1.34 | 1.35 | 1.7 | inactive |
| TSPYL6 | 1 | 1.13 | 1.37 | 1.41 | inactive |
| PROK1 | 1 | 4.93 | 5.01 | 4.92 | active |
| RHOBTB2 | 1 | -2.18 | -0.764 | -1.3 | inactive |
| ZNF420 | 1 | 1.5 | 1.36 | 2.11 | inactive |
| OR5H15 | 1 | -0.363 | -0.988 | -1.14 | inactive |
| OBI1 | 1 | -0.77 | -0.518 | -0.189 | inactive |
| PARS2 | 1 | 2.24 | 4.84 | 5.36 | active |
| PALB2 | 1 | -0.179 | 0.177 | 0.524 | inactive |
| FERMT3 | 1 | 1.36 | -0.0353 | -0.729 | inactive |
| NEK3 | 1 | 1.85 | 1.49 | 0.788 | inactive |
| CCND3 | 1 | 0.369 | 0.257 | 0.139 | inactive |
| UTRN | 1 | -0.0163 | -1.04 | 0.553 | inactive |
| LUZP4 | 1 | 0.81 | 1.19 | 1.38 | inactive |
| MYL12B | 1 | 0.0867 | -0.00755 | 0.255 | inactive |
| DMRT2 | 1 | 0.597 | 1.27 | 1 | inactive |
| PBK | 1 | 0.107 | -0.467 | -0.0956 | inactive |
| PUM1 | 1 | 1.02 | 0.738 | 1.55 | inactive |
| SYNE2 | 1 | -0.247 | -0.268 | -0.402 | inactive |
| CHRNB2 | 1 | 0.929 | 0.514 | 0.437 | inactive |
| CDKL1 | 1 | 0.957 | 1.02 | 1.43 | inactive |
| LOC387816 (retired record) | 1 | 1.42 | 0.965 | 1.02 | inactive |
| LOC440857 (retired record) | 1 | -0.946 | -1.04 | -0.687 | inactive |
| F2RL1 | 1 | -1.05 | 0.327 | -0.215 | inactive |
| FGD1 | 1 | -1.51 | -0.906 | -1.08 | inactive |
| SPATA16 | 1 | -0.954 | -0.27 | -0.0304 | inactive |
| DNASE1L1 | 1 | 0.53 | 0.183 | 0.735 | inactive |
| LOC401619 (retired record) | 1 | 4.06 | 2.32 | 1.95 | active |
| ANKFY1 | 1 | 1.79 | 0.572 | -2.11 | inactive |
| CRCP | 1 | 0.628 | 0.794 | -0.0035 | inactive |
| ALX1 | 1 | -1.24 | -1.82 | -1.52 | inactive |
| CNTRL | 1 | 0.437 | 0.601 | 0.306 | inactive |
| MTF1 | 1 | -0.817 | -0.683 | -0.571 | inactive |
| TJP2 | 1 | 0.0909 | -0.343 | -0.0701 | inactive |
| LOC442387 (retired record) | 1 | 0.154 | -0.138 | -0.224 | inactive |
| GPBAR1 | 1 | 0.496 | 4.36 | 3.16 | active |
| CRIP3 | 1 | -1.65 | -1.49 | -1.88 | inactive |

Reagents above called active, once more:
| gene knocked down | reagent no. | robust z-score, replicate 1 | robust z-score, replicate 2 | robust z-score, replicate 3 | call |
| --- | --- | --- | --- | --- | --- |
| PROK1 | 1 | 4.93 | 5.01 | 4.92 | active |
| PARS2 | 1 | 2.24 | 4.84 | 5.36 | active |
| LOC401619 (retired record) | 1 | 4.06 | 2.32 | 1.95 | active |
| GPBAR1 | 1 | 0.496 | 4.36 | 3.16 | active |

The results go on:
| gene knocked down | reagent no. | robust z-score, replicate 1 | robust z-score, replicate 2 | robust z-score, replicate 3 | call |
| --- | --- | --- | --- | --- | --- |
| GPD1L | 1 | 0.232 | 0.213 | 0.215 | inactive |
| COPRS | 1 | 2.6 | -0.446 | 0.816 | inactive |
| SLC25A45 | 1 | 0.403 | 0.295 | 0.611 | inactive |
| PCDHA8 | 1 | 1.85 | 2.07 | 1.62 | inactive |
| POLR3B | 1 | -0.582 | -0.802 | -0.56 | inactive |
| ACVR1B | 1 | 0.875 | -0.013 | -0.529 | inactive |
| CTH | 1 | -0.15 | 0.919 | 0.266 | inactive |
| LINC01547 | 1 | -1.65 | -2.05 | -2.02 | active |
| LINC01547 | 2 | 1.37 | 1.03 | 0.866 | inactive |
| OR6Y1 | 1 | -0.309 | -0.0598 | 0.228 | inactive |
| LOC440031 (retired record) | 1 | -0.735 | -0.32 | -1.08 | inactive |
| SLC29A4 | 1 | -0.306 | -0.513 | 0.176 | inactive |
| ARMC1 | 1 | -0.847 | -1.25 | -0.1 | inactive |
| CPN1 | 1 | 0.602 | 0.107 | -2.46 | inactive |
| SELENON | 1 | -0.28 | -0.135 | -0.142 | inactive |
| TAP1 | 1 | 1.55 | 1.85 | 1.21 | inactive |
| TPST1 | 1 | -1.37 | -1.19 | -1.25 | inactive |
| GPR22 | 1 | 2.41 | 2.02 | 2.83 | active |
| CCNYL2 | 1 | -0.488 | -0.644 | 0.707 | inactive |
| SKOR1 | 1 | 1.84 | 0.893 | 0.493 | inactive |
| FAM47A | 1 | -1.76 | -0.861 | -1.35 | inactive |
| PUM3 | 1 | -1.82 | -0.687 | 1.53 | inactive |
| GRAMD1B | 1 | -0.103 | -1.06 | -1.16 | inactive |
| GPC1 | 1 | -1.11 | -0.768 | -1.15 | inactive |
| UBXN10 | 1 | -0.47 | -0.504 | -0.358 | inactive |
| FABP2 | 1 | 2.79 | 0.5 | -2.33 | inactive |
| MMGT1 | 1 | -0.633 | -0.371 | -0.791 | inactive |
| POPDC2 | 1 | -0.603 | -0.323 | -0.553 | inactive |
| ZNF704 | 1 | -0.0174 | -0.229 | 0.11 | inactive |
| CEACAM8 | 1 | -0.768 | -0.77 | -0.275 | inactive |
| ATE1 | 1 | -1.23 | -1.44 | -1.35 | inactive |
